Experimental data: PubChem BioAssay AID2685 (National Center for Advancing Translational Sciences (NCATS), 2010)
The other results are listed elsewhere or left out. These are further read-outs of the screen, such as a control signal, another cell line or another target. No call is given for them. The list favours compounds with an active or inconclusive main result. The note in brackets gives the kind of curve behind each potency; many fits are weak.

Experiment: qHTS Assay for Lipid Storage Modulators in Drosophila S3 Cells;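 for cell number change: cells counted by Cell Tracker Red CMTPX staining in the red channel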
Details: BODIPY lipid droplet fluorescence, 18-24 h; for cell number change: measured here: cell count max response, cells fed with added oleic acid
Outline: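 Laser-scanning cytometry quantifies lipid droplet accumulation (500–530 nm total intensity; droplet/cell object ratio) in oleic acid-fed (400 uM added) Drosophila S3 cells treated with a concentration series. 20 uM Triacsin C defined 100% inhibition.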

[1] = measured here: lipid fluorescence (Fed channel) AC50, cells fed with added oleic acid
[2] = measured here: cell number channel AC50, cells fed with added oleic acid

SMILES	cell number change	AC50 [1]	AC50 [2]
CN(Cc1ccsc1)C(=O)CCc1nnc(CCCc2ccccc2)o1	-10.4%	23100 nM [falling, single point]	–
Cn1c(=O)c2c(SC3CCCC3)nc(C3CC3)nc2n(C)c1=O	-7.92%	–	–
Cc1ccc(CNC(=O)NC23CC4CC(CC(C4)C2)C3)cc1	-1.49%	164 nM [falling, full curve, poor fit]	164 nM [falling, full curve, poor fit]
Cc1cc(C(=O)C(=O)N(C)C)c(C)n1-c1ccc(Cl)c(Cl)c1	-20.6%	–	651 nM [falling, full curve, poor fit]
Cc1ccc(NC(=O)CCn2c(=O)[nH]c3ccsc3c2=O)cc1	–	29100 nM [falling, single point]	–
COC(=O)c1ccc(NCC(=O)N2CCCCCC2)cc1	60.9%	–	29100 nM [rising, single point]
COC(=O)c1ccc(NC(=O)C2CCN(C(=O)Nc3ccccc3)CC2)cc1	-9.27%	2310 nM [falling, partial curve, poor fit]	–
Cc1ccccc1Cn1ccc(NC(=O)c2cnn3c(C(F)(F)F)cc(-c4ccco4)nc23)n1	68%	–	18400 nM [rising, single point]
Cc1ccc(S(=O)(=O)Nc2cc(C(=O)O)ccc2N2CCCCC2)cc1	–	6510 nM [rising, single point]	–
O=C(NCc1ccco1)C1CCCN1S(=O)(=O)c1ccccc1C(F)(F)F (stereo not given)	-18.7%	580 nM [falling, full curve]	–
CC1CCCC(C)N1S(=O)(=O)c1ccc(NC(=O)CCn2cnc3ccccc3c2=O)cc1 (stereo not given)	-2.8%	–	1460 nM [rising, partial curve, poor fit]
Cc1cc(C(=O)COC(=O)Cc2n[nH]c(=O)c3ccccc23)c(C)n1-c1ccc2c(c1)OCCO2	-22.4%	18400 nM [falling, single point]	–
CCOC(=O)CCC(=O)Nc1cc(S(=O)(=O)N2CCOCC2)ccc1N1CCCCC1	-11.5%	517 nM [rising, full curve]	–
O=C(COC(=O)Cn1cnc2ccccc2c1=O)Nc1ccc(Cl)c(C(F)(F)F)c1	-11%	3660 nM [rising, full curve]	–
CCOc1ccc(Br)cc1S(=O)(=O)Nc1ccc(C(=O)OCC(=O)N(C)c2ccccc2)cc1	46.4%	–	14600 nM [rising, partial curve, poor fit]
Cc1cccc(C(=O)NCCNC(=O)c2cccnc2)c1	-28.9%	–	51.7 nM [falling, full curve, poor fit]

For convenience, part of the list above:
SMILES	cell number change	AC50 [1]	AC50 [2]
COC(=O)c1ccc(NC(=O)C2CCN(C(=O)Nc3ccccc3)CC2)cc1	-9.27%	2310 nM [falling, partial curve, poor fit]	–
Cc1ccccc1Cn1ccc(NC(=O)c2cnn3c(C(F)(F)F)cc(-c4ccco4)nc23)n1	68%	–	18400 nM [rising, single point]
